Results published in publication PMC11705634.
Results are given in words; binding and its absence hold for the method and conditions named. Binding seen in cells or lysates may run through a third protein. Some binding calls cover weakened binding; strength is not graded here.

Sequences of proteins named here, by UniProt entry; tags and fusion partners are left off.
UniProt Q969H0: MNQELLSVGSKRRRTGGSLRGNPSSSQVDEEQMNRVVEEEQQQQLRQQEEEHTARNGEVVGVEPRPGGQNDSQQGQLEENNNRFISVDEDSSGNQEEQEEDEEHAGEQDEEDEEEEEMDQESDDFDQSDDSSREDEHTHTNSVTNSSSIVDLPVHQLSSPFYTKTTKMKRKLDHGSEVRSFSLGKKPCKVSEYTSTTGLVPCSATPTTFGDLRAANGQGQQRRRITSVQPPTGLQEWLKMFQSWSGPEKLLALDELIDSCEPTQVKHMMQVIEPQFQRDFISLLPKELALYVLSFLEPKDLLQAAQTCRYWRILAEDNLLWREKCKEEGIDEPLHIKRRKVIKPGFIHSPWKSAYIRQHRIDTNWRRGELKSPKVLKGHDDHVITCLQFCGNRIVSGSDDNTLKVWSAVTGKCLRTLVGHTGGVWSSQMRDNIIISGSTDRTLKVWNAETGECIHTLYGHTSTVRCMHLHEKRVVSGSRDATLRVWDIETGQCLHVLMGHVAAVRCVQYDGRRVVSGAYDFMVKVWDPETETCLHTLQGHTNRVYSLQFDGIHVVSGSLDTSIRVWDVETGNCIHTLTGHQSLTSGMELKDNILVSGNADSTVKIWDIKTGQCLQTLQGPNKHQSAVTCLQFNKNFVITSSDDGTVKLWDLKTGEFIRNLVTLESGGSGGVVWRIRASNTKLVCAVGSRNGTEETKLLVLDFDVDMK
UniProt P53396: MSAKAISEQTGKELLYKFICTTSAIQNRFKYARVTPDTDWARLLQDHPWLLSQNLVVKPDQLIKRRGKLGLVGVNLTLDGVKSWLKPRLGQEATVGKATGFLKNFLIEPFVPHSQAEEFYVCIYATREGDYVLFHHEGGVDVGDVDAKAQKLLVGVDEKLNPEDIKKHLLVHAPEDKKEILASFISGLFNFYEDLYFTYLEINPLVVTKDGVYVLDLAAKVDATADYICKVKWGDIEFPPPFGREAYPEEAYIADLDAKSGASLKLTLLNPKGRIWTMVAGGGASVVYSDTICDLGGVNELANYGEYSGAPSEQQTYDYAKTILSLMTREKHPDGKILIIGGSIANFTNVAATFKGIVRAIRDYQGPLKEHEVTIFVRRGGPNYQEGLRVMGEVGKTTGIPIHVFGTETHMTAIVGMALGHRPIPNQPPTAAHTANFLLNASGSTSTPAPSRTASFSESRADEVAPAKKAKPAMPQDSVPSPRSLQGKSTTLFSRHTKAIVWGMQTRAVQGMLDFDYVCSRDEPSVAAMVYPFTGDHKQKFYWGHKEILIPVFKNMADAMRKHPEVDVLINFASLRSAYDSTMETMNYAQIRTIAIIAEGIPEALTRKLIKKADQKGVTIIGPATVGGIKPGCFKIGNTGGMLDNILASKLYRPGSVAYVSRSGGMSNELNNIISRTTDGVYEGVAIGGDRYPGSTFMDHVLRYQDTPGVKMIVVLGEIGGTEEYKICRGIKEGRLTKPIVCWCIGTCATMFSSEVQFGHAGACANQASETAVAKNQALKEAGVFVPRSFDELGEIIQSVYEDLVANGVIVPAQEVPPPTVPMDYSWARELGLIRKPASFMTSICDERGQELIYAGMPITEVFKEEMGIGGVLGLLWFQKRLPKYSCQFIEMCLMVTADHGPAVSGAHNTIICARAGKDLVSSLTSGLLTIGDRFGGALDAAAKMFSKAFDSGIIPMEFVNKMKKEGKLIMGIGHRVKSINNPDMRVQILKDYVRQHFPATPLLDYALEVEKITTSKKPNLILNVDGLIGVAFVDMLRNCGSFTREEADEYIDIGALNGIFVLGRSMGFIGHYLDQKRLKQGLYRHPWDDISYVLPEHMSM

Target: FLAG-FBXW7 (F-Box/WD Repeat-Containing Protein 7) (UniProt Q969H0)
Assay: co-IP; 293-T cells transfected 48 h with FLAG-FBXW7 / MYC-ACLY plasmids; RIPA lysate; overnight at 4°C with IgG or FLAG or MYC antibody, Protein A/G magnetic beads; Western blot

- binding: binds
Substance: MYC-ACLY (ATP Citrate Lyase) (from UniProt P53396 1-1101)
